This note sets out measurements from PMC5130008.

Chains of the proteins cited; added tags and fusions are not shown. Lines headed by an entry give the natural chain unless they say otherwise; changes in a name come on top.
UniProt P63330: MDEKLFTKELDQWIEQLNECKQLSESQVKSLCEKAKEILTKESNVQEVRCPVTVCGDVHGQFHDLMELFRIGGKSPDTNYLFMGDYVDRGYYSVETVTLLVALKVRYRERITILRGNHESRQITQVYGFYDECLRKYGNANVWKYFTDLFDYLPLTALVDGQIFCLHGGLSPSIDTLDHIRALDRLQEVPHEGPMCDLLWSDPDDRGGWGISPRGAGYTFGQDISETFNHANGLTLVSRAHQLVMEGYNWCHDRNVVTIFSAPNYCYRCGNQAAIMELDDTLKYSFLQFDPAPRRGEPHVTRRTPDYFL
UniProt P67775: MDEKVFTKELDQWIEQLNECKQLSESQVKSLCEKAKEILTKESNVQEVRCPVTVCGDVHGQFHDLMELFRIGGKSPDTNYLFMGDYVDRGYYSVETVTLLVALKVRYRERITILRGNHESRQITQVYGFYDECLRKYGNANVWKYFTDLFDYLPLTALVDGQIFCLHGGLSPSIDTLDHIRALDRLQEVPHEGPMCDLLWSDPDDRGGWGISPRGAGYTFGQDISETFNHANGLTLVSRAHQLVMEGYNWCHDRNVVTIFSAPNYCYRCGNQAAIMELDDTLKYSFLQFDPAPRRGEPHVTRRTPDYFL
UniProt Q01105: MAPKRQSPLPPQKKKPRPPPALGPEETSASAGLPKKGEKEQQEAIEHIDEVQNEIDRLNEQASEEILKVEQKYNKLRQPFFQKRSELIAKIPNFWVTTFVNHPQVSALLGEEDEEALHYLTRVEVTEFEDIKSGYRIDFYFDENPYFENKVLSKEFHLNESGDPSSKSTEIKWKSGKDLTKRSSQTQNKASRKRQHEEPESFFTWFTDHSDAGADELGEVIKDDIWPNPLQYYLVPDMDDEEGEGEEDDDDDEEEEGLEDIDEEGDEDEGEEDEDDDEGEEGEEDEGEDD
UniProt Q9EQU5: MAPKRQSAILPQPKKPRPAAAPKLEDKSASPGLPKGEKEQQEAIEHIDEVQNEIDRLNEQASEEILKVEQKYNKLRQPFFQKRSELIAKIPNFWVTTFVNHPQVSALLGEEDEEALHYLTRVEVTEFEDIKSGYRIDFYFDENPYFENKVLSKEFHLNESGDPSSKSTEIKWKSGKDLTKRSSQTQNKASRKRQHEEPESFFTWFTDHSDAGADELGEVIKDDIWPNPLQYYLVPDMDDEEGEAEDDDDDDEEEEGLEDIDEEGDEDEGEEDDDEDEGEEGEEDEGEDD
UniProt Q04206: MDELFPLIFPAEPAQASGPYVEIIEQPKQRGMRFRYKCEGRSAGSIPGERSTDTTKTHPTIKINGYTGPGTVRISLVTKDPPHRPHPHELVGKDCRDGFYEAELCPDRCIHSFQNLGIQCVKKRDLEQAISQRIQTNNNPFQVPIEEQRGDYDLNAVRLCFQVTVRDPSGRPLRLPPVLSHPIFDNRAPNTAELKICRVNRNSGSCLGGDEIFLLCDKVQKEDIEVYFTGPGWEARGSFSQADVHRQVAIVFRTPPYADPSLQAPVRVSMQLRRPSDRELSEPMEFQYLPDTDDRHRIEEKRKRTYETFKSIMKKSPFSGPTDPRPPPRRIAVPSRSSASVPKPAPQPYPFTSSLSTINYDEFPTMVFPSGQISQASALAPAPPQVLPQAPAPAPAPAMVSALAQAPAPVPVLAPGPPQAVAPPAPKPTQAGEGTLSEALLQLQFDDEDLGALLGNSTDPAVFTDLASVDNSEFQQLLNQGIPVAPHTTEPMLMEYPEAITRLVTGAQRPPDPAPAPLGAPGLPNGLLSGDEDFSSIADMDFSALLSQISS
UniProt Q04207: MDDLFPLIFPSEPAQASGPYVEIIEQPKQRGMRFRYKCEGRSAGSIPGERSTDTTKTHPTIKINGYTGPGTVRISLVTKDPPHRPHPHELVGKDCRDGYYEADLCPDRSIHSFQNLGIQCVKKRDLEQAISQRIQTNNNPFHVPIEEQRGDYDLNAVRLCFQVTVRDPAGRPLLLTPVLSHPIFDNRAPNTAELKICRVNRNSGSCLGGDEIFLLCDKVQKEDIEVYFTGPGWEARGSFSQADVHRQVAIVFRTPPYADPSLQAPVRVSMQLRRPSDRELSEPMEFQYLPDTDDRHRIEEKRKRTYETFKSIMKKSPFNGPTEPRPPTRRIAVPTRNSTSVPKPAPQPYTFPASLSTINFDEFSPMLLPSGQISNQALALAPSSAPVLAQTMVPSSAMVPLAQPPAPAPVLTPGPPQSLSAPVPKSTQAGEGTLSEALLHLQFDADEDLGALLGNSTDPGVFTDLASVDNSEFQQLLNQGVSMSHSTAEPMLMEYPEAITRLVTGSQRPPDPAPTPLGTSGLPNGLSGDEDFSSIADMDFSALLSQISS

Assay [1] concerns the target PP2A-C (the catalytic subunit of PP2A) (mouse, H22 cells) (mouse (endogenous in H22)) (UniProt P63330). The assay is described as follows: co-IP; endogenous proteins in lysates of tumor tissues (Huh-7 xenografts in nude mice, H22 transplanted tumors in Kunming mice; RIPA buffer), protein G sepharose pre-absorbed with the indicated primary antibody, 4°C, 2 h, immunoblotting; mice treated with isolie or saline; which partner was precipitated is not told. On the technique in general: A western blot detects proteins with antibodies after separation by electrophoresis.

Assay [2] addresses PP2A-C (the catalytic subunit of PP2A) (human (endogenous in HepG2 and Huh-7)) (UniProt P67775). Described as above.
For assay [3] the target is unchanged. The assay is described as follows: co-IP; endogenous proteins in lysates of cultured HCC cells (RIPA buffer), protein G sepharose pre-absorbed with the indicated primary antibody, 4°C, 2 h, immunoblotting; cells treated with isolie for 24 h or transfected with I2PP2A siRNA; which partner was precipitated is not told.
Assay [4] addresses PP2A-C (the catalytic subunit of PP2A) (mouse, H22 cells) (mouse (endogenous in H22)) (UniProt P63330). Described as above.
Assay [5] deals with Recombinant human I2PP2A protein with 6 × his tag (human) (UniProt Q01105). The assay is described as follows: pull-down; 2 μg 6 × his-tagged I2PP2A bound to Ni-NTA agarose, 1 μg PP2A-C in 1 mL binding buffer (20 mM Tris-HCl pH 8.0, 1 mM EDTA, 150 mM NaCl, 10% glycerol, 0.1% Nonidet P-40), with different concentrations of isolie, 4°C, 3 h; immunoblotting; both purified.

Results are given in words; binding and its absence hold for the method and conditions named. Binding calls can cover weak binding; strength is not graded here. For some assays here: In cells and extracts the contact can be indirect.

For “I2PP2A (mouse, H22 tumors) (from UniProt Q9EQU5 1-289)”, the binding result in assay [1] is “binds”.
For “I2PP2A, also known as SET (from UniProt Q01105 1-290)”, the binding result in assay [2] and in assay [3] was “binds” each time.
As to “NF-κB p65 subunit (from UniProt Q04206 1-551)”, the binding entry in assay [2] and in assay [3] was “binds” throughout.
With “NF-κB p65 subunit (mouse, H22 cells) (from UniProt Q04207 1-549)”, the binding entry in assay [1] and in assay [4] was “binds” throughout.
With “Recombinant human PP2A-C protein (from UniProt P67775) (enzyme)”, the binding result in assay [5] is recorded as “binds”.
